Reference: patent US20240043562A1 (ACADEMISCH ZIEKENHUIS LEIDEN H O D N LUMC, published 2024)
No constants are given. Whether binding was seen depends on the method and setting. Some entries that bind do so weakly or less than the wild type.

B1: recombinant 11-3F6 IgG1 (antibody, V domains shown)
VH: EVQLVESGGGLVKPGGSLRLSCAASGFTFSSYTMDWVRQAPGKGLEWVSSIGSNGDYIYYADSVRGRFTISRDNAKNSLYLQMNSLRPDDTADYYCARGQLAVAGTHFDYWGRGSLVTVSS
VL: DIQMTQSPSSLSASVGDRVTISCRASQKVNKYVNWYQQTPGKAPRLLIYAASTLQSGVPSRFSGSGSGANFTLTISGLQPEDFAIYFCQQSYSPLCTFGQGTKLEIK
B2: recombinant 13-3B5 IgG1 (antibody, V domains shown)
VH: QVQLVQSGAVVAKPGASVQVSCKTSGYTFTGQYLHWVRQAPGQGLEWIGWINPSSGVTKFAEKFEGRATMTRDTSITTAYIDLRSLRSDDTATYYCATLSLGVYYVGMVAWGQGTLVTVSS
VL: SYELTQPPSVSVSPGQTATITCSGDGLAQQHVYWFQQRPGQAPLLIIYKDIERPSGIPERFSGSSSGTTAMLTISGVQAEDEADYYCQSGDRTATSVLFGGGTKMTVL
B3: 11-3D9 (antibody, IgG1, V domains shown)
VH: EVQLVESGGGLVKPGESLRLSCAASGFNFSTYTMHWVRQAPGKGLEWVSSISSRSAYKYYADSVKGRFTISRDIAKNSLYLQMNSLRAEDTAVYYCARDFFQLGPPRFDSWGQGTLVTVSS
VL: DIQMTQSPSSLSASIGDRVTISCRASQRISSFLNWYQQKPGKPPNLLIYGASNLQSGVPSRFSGSGSGTDFTLTITSLQPEDYAIYYCQQSYSPMYTFGQGTSLEIK
B4: 11-3F6 (antibody, V domains shown)
VH: B1 VH
VL: B1 VL
B5: 13-3B5 (antibody, V domains shown)
VH: B2 VH
VL: B2 VL
B6: 13-3D10 (antibody, IgG1, V domains shown)
VH: EDLLVESGGGLVKPGQSLTLSCAASGFDFSASTMAWVRQAPGKGLEWVASVSGDSHHIYYADSLKGRFTLSRDNARNSFFLEMNSLRAEDTAVYYCARERLLRLGVGFDSWGQGSLVAVSS
VL: DIHMTQSPSSLSSSVGDRVTMTCRASQRISGFVNWYQQKPGRAPTLLISAASTLQSGVPSRFSGSASGTDFTLTISGLQPEDSAIYYCQQSYSPLYTFGQGTKVEIK
B7: 13-4D3 (antibody, IgG3, V domains shown)
VH: EVQLMESGGGLVKPGGSLRLSCTASGFTFSSYTMTWVRQAPGKGLEWVSSISSGGHYIYYTDSLKGRFIISRDNAKNSVFLQMNNLRAEDTATYYCARERLLRLGVGFDFWGQGSLVTVSS
VL: DIQMTQSPSSLSASEGDRVTMTCRASQSISGYLNWYQQKPGKAPKLLIYAASTLQSGVPSRFSGSSSGTEFTLSISSLQPEDFATYYCQQSYSALYTFGQGTRVEIK
B8: 14-2E9 (antibody, V domains shown)
VH: EVQLVESGGGLVQPGGSLRLSCAASGFTFSSYWMHWVRQVPGKGLVWVSRLNEDGSTTNYADSVKGRFTISRDNAKYTLYLQMNSLRFEDTAVYYCVSDLSGKDEHWGQGTLVTVSS
VL: DIVMTQSPLSLPVTPGEPASISCRSTQSLLHSNGYYWLDWYLQKPGQSPQLLVYLGFNRASGVPDRFSGSGSGTDFTLKISRVEAEDVGVYYCMQGLQTPYTFGQGTTLEIK

molecular target: T1, MuSK at the postsynaptic membrane of mouse neuromuscular junctions (levator auris longus muscle) (mouse) (UniProt Q61006); assay: immunostaining of isolated mouse skeletal muscle
T1 sequence (looked up): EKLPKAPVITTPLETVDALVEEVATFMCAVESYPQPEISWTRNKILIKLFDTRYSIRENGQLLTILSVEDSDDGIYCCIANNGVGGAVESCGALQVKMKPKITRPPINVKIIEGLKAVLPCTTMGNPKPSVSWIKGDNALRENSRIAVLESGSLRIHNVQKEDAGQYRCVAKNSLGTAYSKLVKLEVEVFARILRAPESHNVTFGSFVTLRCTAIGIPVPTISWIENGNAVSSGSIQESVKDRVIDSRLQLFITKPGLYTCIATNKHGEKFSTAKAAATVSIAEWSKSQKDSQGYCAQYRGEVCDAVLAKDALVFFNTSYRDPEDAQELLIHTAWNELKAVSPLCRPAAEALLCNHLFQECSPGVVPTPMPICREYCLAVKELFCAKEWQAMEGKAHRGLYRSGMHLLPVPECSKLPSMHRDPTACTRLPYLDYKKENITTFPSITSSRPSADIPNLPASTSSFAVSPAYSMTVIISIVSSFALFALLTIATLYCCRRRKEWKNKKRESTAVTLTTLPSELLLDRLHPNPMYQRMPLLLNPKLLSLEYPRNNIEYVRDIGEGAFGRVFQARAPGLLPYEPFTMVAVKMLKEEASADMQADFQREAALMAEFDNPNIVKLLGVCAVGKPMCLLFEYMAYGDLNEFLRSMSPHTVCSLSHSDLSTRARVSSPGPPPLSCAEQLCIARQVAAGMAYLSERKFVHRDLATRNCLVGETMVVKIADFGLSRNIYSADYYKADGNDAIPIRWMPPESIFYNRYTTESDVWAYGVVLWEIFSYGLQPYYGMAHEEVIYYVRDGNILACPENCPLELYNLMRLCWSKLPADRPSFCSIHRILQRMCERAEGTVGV

How did the binding turn out when B1 was run?
Its binding is “binds”.

B2 was tested. Which binding did it give?
Its binding is “binds”.

molecular target: T2, recombinant MuSK produced in E. coli (UniProt O15146); assay: MuSK ELISA of B cell culture medium (FIGS. 3 and 4)
T2 sequence (looked up): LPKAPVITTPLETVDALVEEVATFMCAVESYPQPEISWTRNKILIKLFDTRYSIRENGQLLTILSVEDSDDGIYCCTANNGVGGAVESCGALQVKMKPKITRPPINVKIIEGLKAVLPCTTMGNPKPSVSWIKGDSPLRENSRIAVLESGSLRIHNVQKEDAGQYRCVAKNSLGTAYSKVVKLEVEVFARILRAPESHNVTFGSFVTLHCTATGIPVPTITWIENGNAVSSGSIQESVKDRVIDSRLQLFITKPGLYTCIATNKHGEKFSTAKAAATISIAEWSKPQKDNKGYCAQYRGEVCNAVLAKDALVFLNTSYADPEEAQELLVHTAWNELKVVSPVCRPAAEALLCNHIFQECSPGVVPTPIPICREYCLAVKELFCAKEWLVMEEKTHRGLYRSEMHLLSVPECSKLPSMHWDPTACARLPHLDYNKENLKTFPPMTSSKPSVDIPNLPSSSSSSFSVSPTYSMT

Which binding does the source give for B3 here?
The binding was “binds”.

B4 was tested. Which binding did it give?
Its binding is “binds”.

B5 was tested. Which binding did it give?
Its binding is “binds”.

For B6, which binding is on record?
The binding was “binds”.

Which binding does the source give for B7 here?
The binding was “binds”.

How did the binding turn out when B8 was run?
The binding was “binds”.

molecular target: T2, recombinant MuSK produced in E. coli; assay: ELISA of single B cell culture medium on MuSK produced in E. coli

B3 was tested. Which binding did it give?
The binding was “binds”.

How did the binding turn out when B4 was run?
Its binding is “binds”.

Which binding does the source give for B5 here?
Its binding is “binds”.

With B6 as the binder, how does the binding read?
Its binding is “binds”.

For B7, which binding is on record?
The binding was “binds”.

Which binding does the source give for B8 here?
The binding was “binds”.

molecular target: T3, MuSK produced in yeast (UniProt O15146); assay: ELISA of B cell culture medium on yeast-produced MuSK
T3 sequence (looked up): T2 sequence (looked up)

For B3, which binding is on record?
Its binding is “binds”.

For B4, which binding is on record?
Its binding is “binds”.
